Assay results: the supplement of paper PMC10849652
This is one part of the list. Residues, ends and D or L forms follow the SMILES beside them. *: point of attachment. Cbz = O=C(OCc1ccccc1)*

By UniProt entry, the sequences of proteins in these tests, tags left out. Where a name states a change or a piece, a line headed by the entry shows the natural chain unless it says otherwise.
UniProt Q8N2K0: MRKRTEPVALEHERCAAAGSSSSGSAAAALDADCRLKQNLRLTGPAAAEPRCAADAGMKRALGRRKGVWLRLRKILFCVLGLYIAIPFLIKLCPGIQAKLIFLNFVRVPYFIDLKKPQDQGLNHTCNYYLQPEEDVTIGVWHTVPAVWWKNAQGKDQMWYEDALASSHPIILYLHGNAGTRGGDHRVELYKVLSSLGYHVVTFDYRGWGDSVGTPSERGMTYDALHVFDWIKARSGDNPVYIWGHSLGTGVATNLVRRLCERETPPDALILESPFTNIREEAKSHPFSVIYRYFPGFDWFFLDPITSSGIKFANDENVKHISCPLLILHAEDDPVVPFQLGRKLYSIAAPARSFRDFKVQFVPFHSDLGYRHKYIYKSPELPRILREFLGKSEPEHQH
UniProt P21399: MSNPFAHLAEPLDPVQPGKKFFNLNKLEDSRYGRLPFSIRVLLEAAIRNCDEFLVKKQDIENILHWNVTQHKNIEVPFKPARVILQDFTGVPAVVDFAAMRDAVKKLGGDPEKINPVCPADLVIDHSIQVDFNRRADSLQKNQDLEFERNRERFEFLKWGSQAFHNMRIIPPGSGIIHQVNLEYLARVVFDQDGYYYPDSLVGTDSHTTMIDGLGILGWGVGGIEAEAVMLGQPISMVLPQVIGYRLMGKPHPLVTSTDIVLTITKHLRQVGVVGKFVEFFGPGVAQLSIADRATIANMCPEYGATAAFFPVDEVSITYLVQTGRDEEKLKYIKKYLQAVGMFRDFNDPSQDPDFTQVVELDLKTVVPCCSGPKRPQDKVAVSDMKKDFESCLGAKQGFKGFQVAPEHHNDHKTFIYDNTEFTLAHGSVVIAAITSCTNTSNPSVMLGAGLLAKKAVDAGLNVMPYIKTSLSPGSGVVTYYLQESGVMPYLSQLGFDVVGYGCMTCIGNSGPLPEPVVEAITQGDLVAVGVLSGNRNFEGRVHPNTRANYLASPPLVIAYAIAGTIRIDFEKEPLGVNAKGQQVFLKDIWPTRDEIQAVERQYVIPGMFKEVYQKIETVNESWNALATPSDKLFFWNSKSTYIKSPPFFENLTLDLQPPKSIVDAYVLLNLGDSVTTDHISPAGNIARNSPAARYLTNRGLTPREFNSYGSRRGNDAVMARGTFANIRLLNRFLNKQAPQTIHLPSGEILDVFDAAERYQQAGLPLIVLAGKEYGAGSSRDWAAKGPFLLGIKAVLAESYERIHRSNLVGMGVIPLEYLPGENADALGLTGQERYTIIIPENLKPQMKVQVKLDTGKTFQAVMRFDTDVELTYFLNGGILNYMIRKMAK
UniProt Q9NPJ3: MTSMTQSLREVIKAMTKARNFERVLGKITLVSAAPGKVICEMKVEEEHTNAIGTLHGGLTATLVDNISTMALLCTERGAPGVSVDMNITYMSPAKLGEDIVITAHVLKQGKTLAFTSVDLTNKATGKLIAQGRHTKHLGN
UniProt P55265: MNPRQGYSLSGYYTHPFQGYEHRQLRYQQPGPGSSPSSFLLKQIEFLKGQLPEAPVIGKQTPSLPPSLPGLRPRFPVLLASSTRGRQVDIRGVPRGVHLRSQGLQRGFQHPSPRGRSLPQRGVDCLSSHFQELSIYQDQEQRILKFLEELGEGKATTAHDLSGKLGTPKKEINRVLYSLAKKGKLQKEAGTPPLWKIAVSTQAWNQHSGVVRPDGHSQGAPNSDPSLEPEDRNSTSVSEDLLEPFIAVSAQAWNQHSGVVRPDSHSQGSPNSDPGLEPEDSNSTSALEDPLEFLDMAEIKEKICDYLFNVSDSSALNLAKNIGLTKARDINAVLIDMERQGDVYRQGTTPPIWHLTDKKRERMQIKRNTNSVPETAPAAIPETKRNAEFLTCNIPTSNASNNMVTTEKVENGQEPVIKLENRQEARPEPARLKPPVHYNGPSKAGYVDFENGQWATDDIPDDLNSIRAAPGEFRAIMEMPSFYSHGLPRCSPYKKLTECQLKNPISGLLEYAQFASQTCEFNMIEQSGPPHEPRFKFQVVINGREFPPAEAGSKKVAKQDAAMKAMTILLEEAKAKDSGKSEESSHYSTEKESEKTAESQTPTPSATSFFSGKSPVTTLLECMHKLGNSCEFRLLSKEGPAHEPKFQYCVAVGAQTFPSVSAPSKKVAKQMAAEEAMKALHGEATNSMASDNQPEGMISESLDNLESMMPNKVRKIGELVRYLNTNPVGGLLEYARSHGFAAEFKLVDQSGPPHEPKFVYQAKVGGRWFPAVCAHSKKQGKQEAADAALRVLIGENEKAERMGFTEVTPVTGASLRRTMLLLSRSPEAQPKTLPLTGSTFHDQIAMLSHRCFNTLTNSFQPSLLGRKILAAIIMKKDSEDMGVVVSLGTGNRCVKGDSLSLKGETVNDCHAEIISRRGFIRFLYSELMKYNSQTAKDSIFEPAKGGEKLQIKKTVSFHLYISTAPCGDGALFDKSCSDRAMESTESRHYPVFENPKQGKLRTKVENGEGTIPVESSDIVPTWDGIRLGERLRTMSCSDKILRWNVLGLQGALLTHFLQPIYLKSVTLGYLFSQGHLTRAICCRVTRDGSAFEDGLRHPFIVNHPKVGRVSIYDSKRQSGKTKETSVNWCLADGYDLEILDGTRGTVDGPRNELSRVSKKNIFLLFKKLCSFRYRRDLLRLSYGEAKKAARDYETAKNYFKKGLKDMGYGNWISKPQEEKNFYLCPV
UniProt Q9NR19, whole entry, looked up: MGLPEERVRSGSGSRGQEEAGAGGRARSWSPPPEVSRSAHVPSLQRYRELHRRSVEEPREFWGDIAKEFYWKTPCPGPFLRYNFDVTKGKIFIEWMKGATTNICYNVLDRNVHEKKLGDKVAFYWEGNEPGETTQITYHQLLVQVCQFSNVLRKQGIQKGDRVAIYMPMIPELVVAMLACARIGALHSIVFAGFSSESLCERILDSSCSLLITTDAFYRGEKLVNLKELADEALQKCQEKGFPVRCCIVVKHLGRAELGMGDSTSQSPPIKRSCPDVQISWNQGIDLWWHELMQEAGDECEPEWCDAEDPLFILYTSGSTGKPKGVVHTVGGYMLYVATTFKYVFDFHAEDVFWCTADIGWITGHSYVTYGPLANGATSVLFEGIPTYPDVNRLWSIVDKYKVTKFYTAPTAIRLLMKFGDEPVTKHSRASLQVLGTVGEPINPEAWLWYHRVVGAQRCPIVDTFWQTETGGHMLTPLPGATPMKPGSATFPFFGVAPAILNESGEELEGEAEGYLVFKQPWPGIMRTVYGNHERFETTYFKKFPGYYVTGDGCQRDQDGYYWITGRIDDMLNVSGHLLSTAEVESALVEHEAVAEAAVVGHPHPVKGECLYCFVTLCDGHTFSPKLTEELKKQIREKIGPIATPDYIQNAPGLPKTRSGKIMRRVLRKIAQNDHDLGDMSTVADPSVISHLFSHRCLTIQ
UniProt Q96EY9: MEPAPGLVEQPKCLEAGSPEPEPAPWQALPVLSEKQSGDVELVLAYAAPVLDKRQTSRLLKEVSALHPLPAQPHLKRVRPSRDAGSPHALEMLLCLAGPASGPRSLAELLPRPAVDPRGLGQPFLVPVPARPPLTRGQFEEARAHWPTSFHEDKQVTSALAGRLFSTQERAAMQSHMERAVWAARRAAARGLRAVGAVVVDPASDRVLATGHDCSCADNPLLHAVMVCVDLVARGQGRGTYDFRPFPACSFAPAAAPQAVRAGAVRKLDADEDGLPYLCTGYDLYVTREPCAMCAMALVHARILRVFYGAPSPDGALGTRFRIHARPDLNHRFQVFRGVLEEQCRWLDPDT
UniProt P12814, whole entry, looked up: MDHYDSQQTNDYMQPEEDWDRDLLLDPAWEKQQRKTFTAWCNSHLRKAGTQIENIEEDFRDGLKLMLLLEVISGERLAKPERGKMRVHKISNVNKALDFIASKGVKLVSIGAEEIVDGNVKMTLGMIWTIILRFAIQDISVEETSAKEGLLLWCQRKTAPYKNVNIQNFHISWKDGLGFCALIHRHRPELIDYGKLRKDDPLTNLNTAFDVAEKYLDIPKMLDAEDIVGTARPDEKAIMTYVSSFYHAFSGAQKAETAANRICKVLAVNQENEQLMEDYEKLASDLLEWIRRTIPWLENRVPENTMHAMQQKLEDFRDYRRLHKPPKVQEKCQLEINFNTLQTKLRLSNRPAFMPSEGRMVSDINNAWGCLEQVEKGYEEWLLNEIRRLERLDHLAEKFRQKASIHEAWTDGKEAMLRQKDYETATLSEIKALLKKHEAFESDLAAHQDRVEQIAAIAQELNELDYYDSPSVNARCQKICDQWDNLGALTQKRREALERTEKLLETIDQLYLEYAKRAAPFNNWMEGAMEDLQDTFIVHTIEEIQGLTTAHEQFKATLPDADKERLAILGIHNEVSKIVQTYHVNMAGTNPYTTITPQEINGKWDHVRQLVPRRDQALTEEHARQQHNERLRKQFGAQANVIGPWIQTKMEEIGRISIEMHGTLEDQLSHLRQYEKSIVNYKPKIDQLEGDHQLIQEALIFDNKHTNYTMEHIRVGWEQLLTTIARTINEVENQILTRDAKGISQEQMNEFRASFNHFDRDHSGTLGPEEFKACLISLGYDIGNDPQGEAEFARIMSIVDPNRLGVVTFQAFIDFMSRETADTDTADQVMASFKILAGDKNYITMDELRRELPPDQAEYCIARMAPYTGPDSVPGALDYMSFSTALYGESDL
UniProt Q99798: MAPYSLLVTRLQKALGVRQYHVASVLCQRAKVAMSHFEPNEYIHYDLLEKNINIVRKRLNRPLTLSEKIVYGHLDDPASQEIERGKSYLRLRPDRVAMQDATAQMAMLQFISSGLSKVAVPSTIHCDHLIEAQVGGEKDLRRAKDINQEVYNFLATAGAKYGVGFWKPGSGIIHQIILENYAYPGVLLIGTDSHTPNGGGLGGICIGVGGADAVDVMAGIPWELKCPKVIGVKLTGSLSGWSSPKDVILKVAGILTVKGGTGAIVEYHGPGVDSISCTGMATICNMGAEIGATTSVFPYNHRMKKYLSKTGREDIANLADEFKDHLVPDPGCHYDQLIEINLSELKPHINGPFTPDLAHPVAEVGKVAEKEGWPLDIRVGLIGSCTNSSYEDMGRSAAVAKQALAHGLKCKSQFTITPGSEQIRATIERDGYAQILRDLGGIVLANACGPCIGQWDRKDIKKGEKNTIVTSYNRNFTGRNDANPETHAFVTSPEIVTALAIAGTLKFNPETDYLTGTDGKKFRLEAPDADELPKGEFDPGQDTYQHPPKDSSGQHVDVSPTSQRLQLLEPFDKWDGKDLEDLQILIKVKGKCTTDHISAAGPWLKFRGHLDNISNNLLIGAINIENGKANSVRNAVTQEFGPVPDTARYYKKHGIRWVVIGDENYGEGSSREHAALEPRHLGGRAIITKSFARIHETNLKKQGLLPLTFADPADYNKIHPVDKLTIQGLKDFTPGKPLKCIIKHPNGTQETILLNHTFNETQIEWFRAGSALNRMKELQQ
UniProt O14672: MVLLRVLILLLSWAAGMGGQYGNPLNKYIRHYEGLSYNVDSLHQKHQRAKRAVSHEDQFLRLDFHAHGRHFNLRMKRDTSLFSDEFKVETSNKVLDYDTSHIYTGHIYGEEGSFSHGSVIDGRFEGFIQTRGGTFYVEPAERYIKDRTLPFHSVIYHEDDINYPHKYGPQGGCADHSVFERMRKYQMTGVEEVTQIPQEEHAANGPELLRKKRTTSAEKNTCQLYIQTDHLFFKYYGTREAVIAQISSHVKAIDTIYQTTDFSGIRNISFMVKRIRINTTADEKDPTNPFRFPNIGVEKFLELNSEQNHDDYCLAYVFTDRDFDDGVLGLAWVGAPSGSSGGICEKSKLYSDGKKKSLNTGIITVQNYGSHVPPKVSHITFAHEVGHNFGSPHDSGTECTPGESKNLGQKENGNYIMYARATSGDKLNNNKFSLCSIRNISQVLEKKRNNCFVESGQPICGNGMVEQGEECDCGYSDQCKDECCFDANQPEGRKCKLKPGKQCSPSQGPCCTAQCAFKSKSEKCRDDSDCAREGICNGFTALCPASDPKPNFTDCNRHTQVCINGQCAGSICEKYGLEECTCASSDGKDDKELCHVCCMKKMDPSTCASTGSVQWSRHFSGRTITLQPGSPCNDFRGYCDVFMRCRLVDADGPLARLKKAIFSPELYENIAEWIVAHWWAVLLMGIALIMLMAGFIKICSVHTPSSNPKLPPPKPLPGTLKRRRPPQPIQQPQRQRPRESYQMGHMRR
UniProt Q96GS6: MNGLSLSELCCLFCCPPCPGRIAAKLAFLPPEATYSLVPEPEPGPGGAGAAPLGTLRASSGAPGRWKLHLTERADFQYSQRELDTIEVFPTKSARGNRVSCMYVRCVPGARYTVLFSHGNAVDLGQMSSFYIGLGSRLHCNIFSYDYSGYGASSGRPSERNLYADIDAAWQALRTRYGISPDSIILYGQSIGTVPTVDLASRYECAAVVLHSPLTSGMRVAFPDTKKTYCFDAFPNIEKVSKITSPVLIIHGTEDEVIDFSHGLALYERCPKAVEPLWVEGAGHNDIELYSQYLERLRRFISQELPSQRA

Legend:
Assay in all cases: log2 fold change, soluble protein after heating vs DMSO (PISA); higher = thermal stabilisation; K562 cells, 10 uM, 30 min; active = over 0.2 and 3.5 SD of the protein, either way, in both replicates (recomputed)
[1] = compound: C1COCCN1CCN2C3=CC=CC=C3N=C2NC(=O)C4=CC(=CC=C4)[N+](=O)[O-] [IRAK-1-4 Inhibitor I]
Method in brief: (§1)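 Values are thermal stability changes relative to control samples and are taken from duplicates. They are stated as log2 fold changes. Before quantification by TMTpro 16plex LC-MS/MS with equalised channel sums, K562 cells at 2×10^6 cells/mL were treated with 10 μM compound for 30 min, heated in aliquots for 3 min across 48°C-58°C, pooled, extracted in PBS with 0.5% NP-40 at 4°C, and centrifuged at 21,000xg for 90 min to give the soluble supernatant.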

[2] = compound: C=CC(=O)N1CCC[C@@H](n2nc(-c3ccc(Oc4ccccc4)cc3)c3c(N)ncnc32)C1 [ibrutinib]
Method in brief: as §1

[3] = compound: CC(=O)c1cnc2ccc(-c3cc(Cl)c(O)c(Cl)c3)nc2c1N[C@H]1CC[C@H](CN(C)C)CC1
Method in brief: as §1

[4] = compound: CC(C)(C)Cn1c(N)nc2ccc(-c3[nH]c(C(C)(C)C)nc3-c3ccc(F)cc3)nc21 [ralimetinib]
Method in brief: as §1

[5] = compound: CC(C)(O)CC(=O)NCCn1ccc2ncnc(Nc3ccc(Oc4cccc(C(F)(F)F)c4)c(Cl)c3)c21
Method in brief: as §1

[6] = compound: CC(C)C1=C2N=C(C=C(N2N=C1)NCC3=CC=CC=C3)NCCCCCCN
Method in brief: as §1

[7] = compound: CC(C)C[C@@H](C=O)NC(=O)[C@H](CC(C)C)NC(=O)[C@H](CC(C)C)NC(=O)OCc1ccccc1
Method in brief: as §1

[8] = compound: CC(C)N(C[C@H]1O[C@@H](n2cnc3c(N)ncnc32)[C@H](O)[C@@H]1O)[C@H]1C[C@@H](CCc2nc3cc(C(C)(C)C)ccc3[nH]2)C1 [pinometostat]
Method in brief: as §1

[9] = compound: CC1=C(C(CC(=O)N1)C2=CC=C(C=C2)C(F)(F)F)C(=O)NC3=C(C=C4C(=C3)C=NN4)F
Method in brief: as §1

[10] = compound: CC1=C(C2=C(C=C1)C(=O)C3=CC=CC=C3N2CCCN)C
Method in brief: as §1

[11] = compound: CC1=C(C=C(C=C1)NC(=O)C2=CC(=CC=C2)C(C)(C)C#N)NC3=CC4=C(C=C3)N=CN(C4=O)C
Method in brief: as §1

[12] = compound: CC1=C(C=C(C=C1)NC(=O)C2=CC(=CC=C2)N(C)C)NC(=O)C3=CC=C(C=C3)O
Method in brief: as §1

[13] = compound: CC1=CC=C(C=C1)SC2=C3C=C(SC3=CN=C2)C(=O)N
Method in brief: as §1

[14] = compound: CC1=NC(=CC=C1)C2=C(N=C(N2)C(C)(C)C)C3=CC4=NC=CN=C4C=C3
Method in brief: as §1

[15] = compound: CCCCN(Cc1ccc(C(=O)NO)cc1)C(=O)Nc1ccccc1 [Nexturastat A]
Method in brief: as §1

[16] = compound: CCCS(=O)(=O)Nc1ccc(F)c(C(=O)c2c[nH]c3ncc(-c4ccc(Cl)cc4)cc23)c1F [vemurafenib]
Method in brief: as §1

[17] = compound: CCCS(=O)(=O)Nc1ccc(F)c(C(=O)c2c[nH]c3ncc(Cl)cc23)c1F
Method in brief: as §1

[18] = compound: CCCc1cc(C)[nH]c(=O)c1CNC(=O)c1cc(-c2ccnc(N3CCN(C)CC3)c2)cc2c1cnn2C(C)C
Method in brief: as §1

[19] = compound: CCN(CC)Cc1ccc2cc(COC(=O)Nc3ccc(C(=O)NO)cc3)ccc2c1 [givinostat]
Method in brief: as §1

[20] = compound: CCN(CCCOc1ccc2c(Nc3cc(CC(=O)Nc4cccc(F)c4)[nH]n3)ncnc2c1)CCOP(=O)(O)O [barasertib]
Method in brief: as §1

Target	log2 fold change [1]	log2 fold change [2]	log2 fold change [3]	log2 fold change [4]	log2 fold change [5]	log2 fold change [6]	log2 fold change [7]	log2 fold change [8]	log2 fold change [9]	log2 fold change [10]	log2 fold change [11]	log2 fold change [12]	log2 fold change [13]	log2 fold change [14]	log2 fold change [15]	log2 fold change [16]	log2 fold change [17]	log2 fold change [18]	log2 fold change [19]	log2 fold change [20]
ACADSB (UniProt P45954)	inactive: 0.057	inactive: 0.066	inactive: -0.06	inactive: 0	inactive: -0.038	inactive: 0.052	inactive: -0.057	inactive: -0.072	inactive: -0.098	inactive: 0.072	inactive: 0.026	inactive: -0.018	inactive: 0.005	inactive: 0.034	inactive: 0.032	inactive: 0.005	inactive: 0.052	inactive: -0.007	inactive: -0.022	inactive: -0.014
ABHD12 isoform 2 (UniProt Q8N2K0)	inactive: 0.007	inactive: -0.023	inactive: -0.005	inactive: -0.013	inactive: -0.013	inactive: -0.002	inactive: 0.082	inactive: 0.05	inactive: -0.005	inactive: 0.014	inactive: -0.028	inactive: 0.007	inactive: -0.022	inactive: 0.001	inactive: 0.077	inactive: 0.023	inactive: 0.032	inactive: 0.02	inactive: -0.057	inactive: 0.012
ACO1 (UniProt P21399)	inactive: 0.059	inactive: 0.016	inactive: 0.013	inactive: 0.044	inactive: -0.002	inactive: 0.002	inactive: -0.071	inactive: -0.021	inactive: -0.007	inactive: -0.018	inactive: -0.003	inactive: -0.003	inactive: -0.006	inactive: 0.028	inactive: -0.079	inactive: 0.004	inactive: 0.034	inactive: -0.058	inactive: -0.056	inactive: 0.025
ABCD4 (UniProt O14678)	inactive: 0.177	inactive: -0.182	inactive: -0.17	inactive: 0.108	inactive: -0.113	inactive: -0.319	inactive: -0.088	inactive: 0.064	inactive: 0.091	inactive: -0.053	inactive: 0.001	inactive: 0.107	inactive: -0.023	inactive: 0.012	inactive: -0.048	inactive: 0.038	inactive: -0.087	inactive: 0.065	inactive: 0	inactive: 0.14
ACOT13 (UniProt Q9NPJ3)	inactive: 0.075	inactive: 0.035	inactive: 0.003	inactive: -0.007	inactive: 0.045	inactive: 0.051	inactive: -0.007	inactive: -0.098	inactive: -0.059	inactive: 0	inactive: 0.006	inactive: 0.028	inactive: 0.017	inactive: 0.09	inactive: 0.044	inactive: -0.023	inactive: 0.021	inactive: 0.018	inactive: 0.003	inactive: -0.02
ADAR isoform 4 (UniProt P55265)	inactive: -0.008	inactive: 0.079	inactive: 0.091	inactive: 0.198	inactive: 0.074	inactive: -0.2	inactive: 0	inactive: 0.033	inactive: 0.037	inactive: 0.057	inactive: 0.081	inactive: -0.082	inactive: -0.059	inactive: -0.213	inactive: 0.146	inactive: -0.162	inactive: -0.022	inactive: -0.245	inactive: 0.112	inactive: -0.107
ACSS2 isoform 2 (UniProt Q9NR19)	inactive: 0.009	inactive: -0.032	inactive: 0.002	inactive: -0.064	inactive: -0.031	inactive: -0.029	inactive: 0.017	inactive: -0.036	inactive: 0.012	inactive: 0.027	inactive: -0.008	inactive: -0.027	inactive: -0.013	inactive: 0.008	inactive: -0.051	inactive: 0	inactive: 0.018	inactive: 0.128	inactive: -0.02	inactive: 0.037
ADAT3 (UniProt Q96EY9)	inactive: 0.082	inactive: 0.027	inactive: -0.028	inactive: -0.037	inactive: 0.019	inactive: 0.016	inactive: 0.04	inactive: 0.015	inactive: -0.066	inactive: 0.037	inactive: -0.157	inactive: -0.018	inactive: 0.017	inactive: -0.003	inactive: -0.037	inactive: -0.075	inactive: -0.066	inactive: 0.043	inactive: 0.06	inactive: 0.027
ACTN1 (UniProt P12814)	inactive: -0.005	inactive: 0.015	inactive: 0.008	inactive: -0.033	inactive: 0.013	inactive: 0.07	inactive: -0.033	inactive: -0.048	inactive: 0.022	inactive: 0.026	inactive: -0.005	inactive: 0.009	inactive: 0.011	inactive: 0.046	inactive: -0.005	inactive: -0.001	inactive: 0.009	inactive: -0.042	inactive: 0.009	inactive: -0.014
ACTA1 (UniProt P68133)	inactive: 0.071	inactive: 0.027	inactive: 0	inactive: -0.032	inactive: 0.034	inactive: 0.092	inactive: -0.053	inactive: -0.041	inactive: 0.015	inactive: 0.007	inactive: -0.021	inactive: 0.017	inactive: -0.009	inactive: 0.01	inactive: -0.049	inactive: 0.016	inactive: -0.018	inactive: -0.024	inactive: -0.014	inactive: 0.009
ACO2 (UniProt Q99798)	inactive: 0.023	inactive: 0.025	inactive: -0.016	inactive: -0.019	inactive: -0.068	inactive: -0.058	inactive: -0.022	inactive: -0.033	–	inactive: 0.076	inactive: 0.071	inactive: -0.063	inactive: 0.012	inactive: 0.035	inactive: -0.073	inactive: 0.055	inactive: 0.027	inactive: -0.003	inactive: -0.014	inactive: 0.037
ABCC1 (UniProt P33527)	inactive: 0.033	inactive: 0.036	inactive: -0.005	inactive: -0.037	inactive: 0.032	inactive: 0.135	inactive: -0.008	inactive: 0.007	inactive: -0.005	inactive: 0.008	inactive: -0.031	inactive: 0	inactive: -0.03	inactive: 0.005	inactive: -0.035	inactive: 0.005	inactive: 0.001	inactive: -0.068	inactive: 0.012	inactive: 0.005
ABHD16A (UniProt O95870)	inactive: -0.039	inactive: 0.043	inactive: -0.026	inactive: 0.047	active: 0.361	active: 0.656	inactive: 0.064	inactive: -0.009	–	inactive: 0.012	inactive: 0.01	inactive: -0.084	inactive: -0.051	inactive: -0.057	inactive: 0.118	inactive: -0.001	inactive: -0.036	inactive: 0.09	inactive: 0.037	inactive: 0.008
ACSM3 (UniProt Q53FZ2)	inactive: 0	inactive: -0.021	inactive: -0.11	inactive: -0.003	active: -0.397	inactive: -0.155	inactive: -0.086	inactive: 0.046	–	inactive: 0.041	inactive: -0.069	inactive: -0.056	inactive: 0.019	inactive: -0.029	inactive: -0.096	inactive: 0.033	inactive: 0.036	inactive: 0.018	inactive: 0.039	inactive: 0.103
ADAM10 (UniProt O14672)	inactive: -0.005	inactive: 0.013	inactive: 0	inactive: -0.013	inactive: 0.028	inactive: 0.011	inactive: 0.032	inactive: 0.021	inactive: -0.019	inactive: 0.016	inactive: 0.003	inactive: -0.005	inactive: -0.009	inactive: -0.015	inactive: 0.024	inactive: -0.029	inactive: -0.036	inactive: -0.067	inactive: 0.02	inactive: -0.043
ABHD17A isoform 2 (UniProt Q96GS6)	inactive: 0.076	inactive: 0.001	inactive: -0.042	inactive: -0.034	inactive: -0.078	inactive: -0.126	inactive: 0.062	inactive: 0.079	–	inactive: 0.077	inactive: -0.004	inactive: -0.031	inactive: 0.035	inactive: -0.068	inactive: 0.034	inactive: -0.039	inactive: -0.032	inactive: -0.021	inactive: -0.313	inactive: 0.016

Laid out differently: entries from further up.
Target,log2 fold change [1],log2 fold change [2],log2 fold change [3],log2 fold change [4],log2 fold change [5],log2 fold change [6],log2 fold change [7],log2 fold change [8],log2 fold change [9],log2 fold change [10],log2 fold change [11],log2 fold change [12],log2 fold change [13],log2 fold change [14],log2 fold change [15],log2 fold change [16],log2 fold change [17],log2 fold change [18],log2 fold change [19],log2 fold change [20]
ACOT13 (UniProt Q9NPJ3),inactive: 0.075,inactive: 0.035,inactive: 0.003,inactive: -0.007,inactive: 0.045,inactive: 0.051,inactive: -0.007,inactive: -0.098,inactive: -0.059,inactive: 0,inactive: 0.006,inactive: 0.028,inactive: 0.017,inactive: 0.09,inactive: 0.044,inactive: -0.023,inactive: 0.021,inactive: 0.018,inactive: 0.003,inactive: -0.02
ABHD17A isoform 2 (UniProt Q96GS6),inactive: 0.076,inactive: 0.001,inactive: -0.042,inactive: -0.034,inactive: -0.078,inactive: -0.126,inactive: 0.062,inactive: 0.079,–,inactive: 0.077,inactive: -0.004,inactive: -0.031,inactive: 0.035,inactive: -0.068,inactive: 0.034,inactive: -0.039,inactive: -0.032,inactive: -0.021,inactive: -0.313,inactive: 0.016
